The source of these data is paper doi:10.1101/2020.06.19.160762.

Sequences of proteins named here, by UniProt entry; tags and fusion partners are left off. Residues count along the entry.
UniProt Q9UQ35, residues 1-2748: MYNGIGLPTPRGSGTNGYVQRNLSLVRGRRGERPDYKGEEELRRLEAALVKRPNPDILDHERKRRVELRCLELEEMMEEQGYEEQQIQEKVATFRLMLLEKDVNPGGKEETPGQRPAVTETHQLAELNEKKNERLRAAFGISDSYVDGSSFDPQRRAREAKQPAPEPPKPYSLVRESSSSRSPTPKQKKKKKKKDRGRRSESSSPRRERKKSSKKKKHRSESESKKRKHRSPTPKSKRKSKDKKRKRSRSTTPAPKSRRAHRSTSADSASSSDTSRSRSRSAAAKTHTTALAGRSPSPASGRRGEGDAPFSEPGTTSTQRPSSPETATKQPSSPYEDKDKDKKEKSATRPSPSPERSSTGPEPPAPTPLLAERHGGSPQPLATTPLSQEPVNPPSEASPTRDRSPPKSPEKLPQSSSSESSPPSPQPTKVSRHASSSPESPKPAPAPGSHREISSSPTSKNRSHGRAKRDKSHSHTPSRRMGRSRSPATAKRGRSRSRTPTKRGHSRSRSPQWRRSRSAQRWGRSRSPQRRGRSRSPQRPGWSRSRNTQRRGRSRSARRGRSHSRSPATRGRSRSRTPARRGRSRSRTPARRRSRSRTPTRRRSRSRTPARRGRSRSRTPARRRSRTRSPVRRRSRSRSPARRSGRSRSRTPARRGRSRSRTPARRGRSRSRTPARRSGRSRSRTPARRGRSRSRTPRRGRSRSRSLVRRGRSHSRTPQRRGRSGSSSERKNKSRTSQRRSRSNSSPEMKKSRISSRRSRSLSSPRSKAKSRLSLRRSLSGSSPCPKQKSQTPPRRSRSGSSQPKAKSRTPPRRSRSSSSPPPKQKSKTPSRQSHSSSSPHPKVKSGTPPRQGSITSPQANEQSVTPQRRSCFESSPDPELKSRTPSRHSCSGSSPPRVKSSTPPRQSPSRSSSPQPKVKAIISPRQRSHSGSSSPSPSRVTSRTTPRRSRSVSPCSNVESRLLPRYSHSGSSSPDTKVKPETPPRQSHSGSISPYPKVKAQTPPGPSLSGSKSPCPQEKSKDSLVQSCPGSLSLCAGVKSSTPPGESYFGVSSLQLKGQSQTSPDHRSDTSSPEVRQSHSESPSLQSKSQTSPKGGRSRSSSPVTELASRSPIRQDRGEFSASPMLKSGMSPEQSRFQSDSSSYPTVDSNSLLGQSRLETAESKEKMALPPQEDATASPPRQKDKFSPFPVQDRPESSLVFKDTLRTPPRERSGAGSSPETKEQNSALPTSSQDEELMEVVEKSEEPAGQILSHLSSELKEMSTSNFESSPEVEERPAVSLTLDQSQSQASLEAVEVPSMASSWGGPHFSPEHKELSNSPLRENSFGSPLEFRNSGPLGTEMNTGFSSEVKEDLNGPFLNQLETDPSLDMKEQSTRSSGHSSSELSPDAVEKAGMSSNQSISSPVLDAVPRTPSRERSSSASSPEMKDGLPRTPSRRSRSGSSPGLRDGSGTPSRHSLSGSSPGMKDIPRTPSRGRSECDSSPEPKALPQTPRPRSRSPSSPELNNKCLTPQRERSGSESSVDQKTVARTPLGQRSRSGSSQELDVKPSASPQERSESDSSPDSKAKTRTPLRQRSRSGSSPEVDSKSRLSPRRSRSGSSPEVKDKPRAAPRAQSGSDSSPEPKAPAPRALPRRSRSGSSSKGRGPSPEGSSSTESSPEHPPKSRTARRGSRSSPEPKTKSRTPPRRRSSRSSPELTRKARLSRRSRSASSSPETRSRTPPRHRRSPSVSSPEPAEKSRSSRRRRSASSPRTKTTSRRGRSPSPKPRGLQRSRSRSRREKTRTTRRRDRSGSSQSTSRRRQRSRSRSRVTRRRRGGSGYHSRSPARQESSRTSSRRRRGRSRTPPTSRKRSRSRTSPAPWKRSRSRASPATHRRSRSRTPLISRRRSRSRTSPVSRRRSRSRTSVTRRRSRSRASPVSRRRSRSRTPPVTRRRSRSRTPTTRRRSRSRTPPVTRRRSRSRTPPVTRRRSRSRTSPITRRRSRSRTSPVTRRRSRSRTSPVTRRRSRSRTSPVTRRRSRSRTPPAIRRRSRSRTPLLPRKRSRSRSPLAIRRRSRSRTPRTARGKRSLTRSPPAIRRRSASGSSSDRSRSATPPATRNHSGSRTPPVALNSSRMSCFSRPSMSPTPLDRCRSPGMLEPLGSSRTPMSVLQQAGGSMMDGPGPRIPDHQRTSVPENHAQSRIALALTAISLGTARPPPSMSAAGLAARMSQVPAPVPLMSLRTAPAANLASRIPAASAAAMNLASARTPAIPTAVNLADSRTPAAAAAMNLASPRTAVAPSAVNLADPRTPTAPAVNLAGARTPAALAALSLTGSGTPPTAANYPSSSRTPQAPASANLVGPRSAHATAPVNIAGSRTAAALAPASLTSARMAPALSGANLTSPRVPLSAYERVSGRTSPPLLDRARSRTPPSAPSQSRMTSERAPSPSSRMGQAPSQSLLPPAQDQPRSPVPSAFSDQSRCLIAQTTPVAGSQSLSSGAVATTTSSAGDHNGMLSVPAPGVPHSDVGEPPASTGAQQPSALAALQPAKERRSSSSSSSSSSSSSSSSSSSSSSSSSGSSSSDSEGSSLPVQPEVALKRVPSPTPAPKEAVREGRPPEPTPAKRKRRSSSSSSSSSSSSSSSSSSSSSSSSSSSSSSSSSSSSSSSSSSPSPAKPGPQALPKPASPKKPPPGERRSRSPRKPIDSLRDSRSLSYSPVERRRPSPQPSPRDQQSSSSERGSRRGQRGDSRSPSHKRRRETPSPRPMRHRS

For the assay, the target named is SRRM2^tr0 (near-full-length SRRM2 with TagGFP2 inserted at the endogenous locus) (human) (UniProt Q9UQ35). The assay can be described thus: co-IP.

Results are given in words; binding and its absence hold for the method and conditions named. Binding seen in cells or lysates may run through a third protein. Some entries that bind do so weakly or less than the wild type.

B1: SRRM1 (protein, UniProt Q8IYB3 1-904)
chain: MDAGFFRGTSAEQDNRFSNKQKKLLKQLKFAECLEKKVDMSKVNLEVIKPWITKRVTEILGFEDDVVIEFIFNQLEVKNPDSKMMQINLTGFLNGKNAREFMGELWPLLLSAQENIAGIPSAFLELKKEEIKQRQIEQEKLASMKKQDEDKDKRDKEEKESSREKRERSRSPRRRKSRSPSPRRRSSPVRRERKRSHSRSPRHRTKSRSPSPAPEKKEKTPELPEPSVKVKEPSVQEATSTSDILKVPKPEPIPEPKEPSPEKNSKKEKEKEKTRPRSRSRSKSRSRTRSRSPSHTRPRRRHRSRSRSYSPRRRPSPRRRPSPRRRTPPRRMPPPPRHRRSRSPVRRRRRSSASLSGSSSSSSSSRSRSPPKKPPKRTSSPPRKTRRLSPSASPPRRRHRPSPPATPPPKTRHSPTPQQSNRTRKSRVSVSPGRTSGKVTKHKGTEKRESPSPAPKPRKVELSESEEDKGGKMAAADSVQQRRQYRRQNQQSSSDSGSSSSSEDERPKRSHVKNGEVGRRRRHSPSRSASPSPRKRQKETSPRGRRRRSPSPPPTRRRRSPSPAPPPRRRRTPTPPPRRRTPSPPPRRRSPSPRRYSPPIQRRYSPSPPPKRRTASPPPPPKRRASPSPPPKRRVSHSPPPKQRSSPVTKRRSPSLSSKHRKGSSPSRSTREARSPQPNKRHSPSPRPRAPQTSSSPPPVRRGASSSPQRRQSPSPSTRPIRRVSRTPEPKKIKKAASPSPQSVRRVSSSRSVSGSPEPAAKKPPAPPSPVQSQSPSTNWSPAVPVKKAKSPTPSPSPPRNSDQEGGGKKKKKKKDKKHKKDKKHKKHKKHKKEKAVAAAAAAAVTPAAIAAATTTLAQEEPVAAPEPKKETESEAEDNLDDLEKHLREKALRSMRKAQVSPQS
In the case of B1, the binding result is “binds”.
